Some of the results follow.

The chains behind the UniProt entries cited, without tags or fusion partners. Where a name states a change or a piece, a line headed by the entry shows the natural chain unless it says otherwise.
UniProt Q9NR77: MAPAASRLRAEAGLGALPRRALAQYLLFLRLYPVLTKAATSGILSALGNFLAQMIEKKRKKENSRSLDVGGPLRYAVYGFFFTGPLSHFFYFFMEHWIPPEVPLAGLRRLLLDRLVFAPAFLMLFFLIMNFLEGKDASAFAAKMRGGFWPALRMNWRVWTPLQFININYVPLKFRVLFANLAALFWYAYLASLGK
UniProt Q9BXR0: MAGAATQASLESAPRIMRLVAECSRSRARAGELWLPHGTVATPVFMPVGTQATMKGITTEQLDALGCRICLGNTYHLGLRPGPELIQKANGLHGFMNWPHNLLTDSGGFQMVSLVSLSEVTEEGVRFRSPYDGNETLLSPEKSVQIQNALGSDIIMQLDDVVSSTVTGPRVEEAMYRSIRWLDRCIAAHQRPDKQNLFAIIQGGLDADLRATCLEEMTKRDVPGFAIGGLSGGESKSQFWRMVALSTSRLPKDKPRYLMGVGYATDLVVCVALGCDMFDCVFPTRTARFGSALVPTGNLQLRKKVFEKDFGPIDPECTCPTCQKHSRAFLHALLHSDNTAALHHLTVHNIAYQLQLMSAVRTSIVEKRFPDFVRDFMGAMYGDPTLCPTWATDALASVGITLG
UniProt Q9NXS2: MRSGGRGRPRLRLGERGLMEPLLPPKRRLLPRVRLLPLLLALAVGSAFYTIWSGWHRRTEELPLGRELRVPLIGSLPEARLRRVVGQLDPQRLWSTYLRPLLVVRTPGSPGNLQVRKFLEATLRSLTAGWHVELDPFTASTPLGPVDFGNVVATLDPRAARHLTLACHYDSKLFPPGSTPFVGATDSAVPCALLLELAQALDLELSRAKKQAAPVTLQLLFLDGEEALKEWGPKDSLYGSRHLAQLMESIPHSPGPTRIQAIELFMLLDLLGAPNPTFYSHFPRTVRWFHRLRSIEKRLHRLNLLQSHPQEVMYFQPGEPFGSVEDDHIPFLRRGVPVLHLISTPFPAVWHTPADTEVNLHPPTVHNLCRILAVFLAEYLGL
UniProt P20962: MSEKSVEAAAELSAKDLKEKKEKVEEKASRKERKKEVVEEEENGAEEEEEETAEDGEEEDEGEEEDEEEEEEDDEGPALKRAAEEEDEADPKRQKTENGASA
UniProt Q9NRG1: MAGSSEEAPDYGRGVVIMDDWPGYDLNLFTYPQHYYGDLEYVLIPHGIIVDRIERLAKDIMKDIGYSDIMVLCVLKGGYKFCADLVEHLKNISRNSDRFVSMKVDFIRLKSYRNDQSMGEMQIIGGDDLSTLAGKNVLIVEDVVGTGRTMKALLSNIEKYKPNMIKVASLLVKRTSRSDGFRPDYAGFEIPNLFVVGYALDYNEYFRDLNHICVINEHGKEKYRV
UniProt P18433: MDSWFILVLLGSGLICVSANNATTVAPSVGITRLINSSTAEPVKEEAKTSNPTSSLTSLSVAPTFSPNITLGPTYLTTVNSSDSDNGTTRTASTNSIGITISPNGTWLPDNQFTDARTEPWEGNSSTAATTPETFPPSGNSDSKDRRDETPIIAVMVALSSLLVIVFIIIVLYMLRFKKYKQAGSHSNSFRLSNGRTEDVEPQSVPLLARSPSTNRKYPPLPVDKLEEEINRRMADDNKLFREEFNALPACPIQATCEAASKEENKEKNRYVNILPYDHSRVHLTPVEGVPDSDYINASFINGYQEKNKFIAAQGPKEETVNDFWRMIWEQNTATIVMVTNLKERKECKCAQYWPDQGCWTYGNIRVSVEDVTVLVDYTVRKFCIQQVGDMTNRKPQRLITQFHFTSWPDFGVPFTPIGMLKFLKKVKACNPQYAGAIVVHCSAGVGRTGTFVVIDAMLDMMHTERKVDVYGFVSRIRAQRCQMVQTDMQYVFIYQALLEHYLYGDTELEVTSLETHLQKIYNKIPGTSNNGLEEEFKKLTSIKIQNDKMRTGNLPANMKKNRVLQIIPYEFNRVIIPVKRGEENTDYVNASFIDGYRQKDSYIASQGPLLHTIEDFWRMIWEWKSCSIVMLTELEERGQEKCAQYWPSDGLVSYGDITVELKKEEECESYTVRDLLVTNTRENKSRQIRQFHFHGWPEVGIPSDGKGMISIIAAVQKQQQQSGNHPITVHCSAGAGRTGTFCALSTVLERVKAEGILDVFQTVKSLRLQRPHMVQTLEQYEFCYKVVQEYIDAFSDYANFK
UniProt Q8TB72: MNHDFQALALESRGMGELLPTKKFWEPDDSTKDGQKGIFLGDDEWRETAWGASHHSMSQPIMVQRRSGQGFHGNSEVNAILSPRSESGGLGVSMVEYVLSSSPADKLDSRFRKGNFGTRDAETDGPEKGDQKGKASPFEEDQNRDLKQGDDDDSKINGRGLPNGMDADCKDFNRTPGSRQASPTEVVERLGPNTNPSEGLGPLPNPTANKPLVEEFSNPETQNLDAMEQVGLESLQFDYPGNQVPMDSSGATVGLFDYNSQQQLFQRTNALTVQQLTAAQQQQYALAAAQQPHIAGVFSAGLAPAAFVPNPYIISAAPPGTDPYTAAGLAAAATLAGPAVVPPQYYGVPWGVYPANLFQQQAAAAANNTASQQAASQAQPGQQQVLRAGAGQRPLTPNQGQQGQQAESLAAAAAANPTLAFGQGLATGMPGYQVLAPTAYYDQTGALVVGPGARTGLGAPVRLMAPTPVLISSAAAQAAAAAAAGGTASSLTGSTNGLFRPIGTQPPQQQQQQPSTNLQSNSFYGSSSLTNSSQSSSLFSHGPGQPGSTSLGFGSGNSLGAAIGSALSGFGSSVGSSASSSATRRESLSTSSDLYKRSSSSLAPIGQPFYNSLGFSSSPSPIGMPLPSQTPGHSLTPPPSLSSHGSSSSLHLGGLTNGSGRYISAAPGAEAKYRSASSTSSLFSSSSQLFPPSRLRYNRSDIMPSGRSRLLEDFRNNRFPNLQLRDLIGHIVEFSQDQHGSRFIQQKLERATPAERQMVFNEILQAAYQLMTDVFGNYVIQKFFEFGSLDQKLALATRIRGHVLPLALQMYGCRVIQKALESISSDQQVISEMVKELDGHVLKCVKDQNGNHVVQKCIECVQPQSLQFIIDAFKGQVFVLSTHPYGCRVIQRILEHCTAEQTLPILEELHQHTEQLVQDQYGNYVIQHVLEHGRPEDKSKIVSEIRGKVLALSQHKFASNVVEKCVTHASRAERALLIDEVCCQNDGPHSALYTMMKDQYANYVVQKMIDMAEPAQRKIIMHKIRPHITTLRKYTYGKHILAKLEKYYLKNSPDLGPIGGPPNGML
UniProt P08575: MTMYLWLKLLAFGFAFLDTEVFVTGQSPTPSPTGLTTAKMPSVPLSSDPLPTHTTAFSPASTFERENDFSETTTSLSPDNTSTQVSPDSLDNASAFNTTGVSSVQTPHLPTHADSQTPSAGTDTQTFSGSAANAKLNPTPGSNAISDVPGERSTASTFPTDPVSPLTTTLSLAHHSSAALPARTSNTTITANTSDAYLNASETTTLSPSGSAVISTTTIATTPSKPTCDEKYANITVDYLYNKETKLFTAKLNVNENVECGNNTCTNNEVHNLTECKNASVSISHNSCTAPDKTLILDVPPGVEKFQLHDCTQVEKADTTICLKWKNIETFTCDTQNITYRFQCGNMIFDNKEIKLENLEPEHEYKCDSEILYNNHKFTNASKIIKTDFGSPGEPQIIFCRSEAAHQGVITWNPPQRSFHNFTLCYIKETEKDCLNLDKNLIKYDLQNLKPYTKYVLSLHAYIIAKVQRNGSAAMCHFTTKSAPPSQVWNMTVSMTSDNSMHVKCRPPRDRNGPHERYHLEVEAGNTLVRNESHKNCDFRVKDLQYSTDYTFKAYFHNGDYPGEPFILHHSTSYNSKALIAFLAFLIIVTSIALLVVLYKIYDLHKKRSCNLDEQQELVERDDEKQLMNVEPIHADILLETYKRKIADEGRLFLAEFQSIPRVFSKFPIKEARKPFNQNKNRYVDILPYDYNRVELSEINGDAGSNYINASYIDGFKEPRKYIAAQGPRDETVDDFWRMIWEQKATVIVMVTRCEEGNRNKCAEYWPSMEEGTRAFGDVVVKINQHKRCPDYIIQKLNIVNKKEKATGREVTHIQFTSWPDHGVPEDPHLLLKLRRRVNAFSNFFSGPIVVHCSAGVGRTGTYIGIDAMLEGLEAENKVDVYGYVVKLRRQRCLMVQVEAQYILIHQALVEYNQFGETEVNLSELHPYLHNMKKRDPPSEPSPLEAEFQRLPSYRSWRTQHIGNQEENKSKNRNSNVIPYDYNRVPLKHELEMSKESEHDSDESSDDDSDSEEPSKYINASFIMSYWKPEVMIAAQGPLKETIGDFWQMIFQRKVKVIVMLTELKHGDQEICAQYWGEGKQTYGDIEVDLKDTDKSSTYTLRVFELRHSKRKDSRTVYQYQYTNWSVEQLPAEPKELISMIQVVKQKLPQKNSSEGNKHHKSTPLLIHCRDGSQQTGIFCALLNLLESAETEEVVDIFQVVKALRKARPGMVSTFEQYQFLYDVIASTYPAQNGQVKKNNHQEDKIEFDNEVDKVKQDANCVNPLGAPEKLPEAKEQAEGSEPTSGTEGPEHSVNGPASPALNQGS
UniProt Q9BVG9: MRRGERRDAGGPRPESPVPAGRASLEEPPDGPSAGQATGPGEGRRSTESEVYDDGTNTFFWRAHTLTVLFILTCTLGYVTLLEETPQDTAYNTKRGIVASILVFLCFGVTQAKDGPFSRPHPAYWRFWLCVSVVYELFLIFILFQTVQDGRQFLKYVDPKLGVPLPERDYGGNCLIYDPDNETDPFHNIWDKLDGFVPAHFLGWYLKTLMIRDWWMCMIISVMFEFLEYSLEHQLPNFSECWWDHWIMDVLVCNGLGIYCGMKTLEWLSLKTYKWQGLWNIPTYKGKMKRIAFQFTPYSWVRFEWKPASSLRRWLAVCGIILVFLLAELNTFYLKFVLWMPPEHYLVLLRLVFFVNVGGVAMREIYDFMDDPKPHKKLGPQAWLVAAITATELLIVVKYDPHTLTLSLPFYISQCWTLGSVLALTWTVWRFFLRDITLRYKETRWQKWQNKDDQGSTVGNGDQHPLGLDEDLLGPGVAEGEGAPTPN
UniProt Q13308: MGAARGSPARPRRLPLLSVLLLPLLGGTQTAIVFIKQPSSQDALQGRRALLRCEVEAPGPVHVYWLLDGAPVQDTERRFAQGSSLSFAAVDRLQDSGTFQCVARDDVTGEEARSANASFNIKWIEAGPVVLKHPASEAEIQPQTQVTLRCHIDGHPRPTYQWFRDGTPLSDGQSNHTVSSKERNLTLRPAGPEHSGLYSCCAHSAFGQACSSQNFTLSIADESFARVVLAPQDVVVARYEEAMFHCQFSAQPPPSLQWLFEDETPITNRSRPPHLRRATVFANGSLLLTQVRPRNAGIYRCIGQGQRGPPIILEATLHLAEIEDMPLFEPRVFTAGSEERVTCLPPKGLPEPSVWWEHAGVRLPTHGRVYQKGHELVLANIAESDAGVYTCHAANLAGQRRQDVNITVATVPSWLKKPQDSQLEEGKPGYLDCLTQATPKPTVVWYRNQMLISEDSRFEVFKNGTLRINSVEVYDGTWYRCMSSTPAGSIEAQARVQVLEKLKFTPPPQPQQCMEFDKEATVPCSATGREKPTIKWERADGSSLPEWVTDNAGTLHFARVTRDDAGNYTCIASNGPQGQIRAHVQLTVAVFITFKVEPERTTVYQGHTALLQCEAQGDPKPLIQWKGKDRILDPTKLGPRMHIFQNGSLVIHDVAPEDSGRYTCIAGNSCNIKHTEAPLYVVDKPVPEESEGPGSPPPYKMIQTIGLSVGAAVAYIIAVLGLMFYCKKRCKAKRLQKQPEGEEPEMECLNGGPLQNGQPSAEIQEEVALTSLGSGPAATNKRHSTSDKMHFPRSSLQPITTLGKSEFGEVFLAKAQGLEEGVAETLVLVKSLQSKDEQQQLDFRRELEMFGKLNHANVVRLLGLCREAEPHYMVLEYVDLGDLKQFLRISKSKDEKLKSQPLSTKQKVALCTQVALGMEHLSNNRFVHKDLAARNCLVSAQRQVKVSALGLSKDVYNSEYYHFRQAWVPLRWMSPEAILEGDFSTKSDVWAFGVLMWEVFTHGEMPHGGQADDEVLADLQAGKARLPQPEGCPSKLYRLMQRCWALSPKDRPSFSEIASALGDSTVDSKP
UniProt P25786: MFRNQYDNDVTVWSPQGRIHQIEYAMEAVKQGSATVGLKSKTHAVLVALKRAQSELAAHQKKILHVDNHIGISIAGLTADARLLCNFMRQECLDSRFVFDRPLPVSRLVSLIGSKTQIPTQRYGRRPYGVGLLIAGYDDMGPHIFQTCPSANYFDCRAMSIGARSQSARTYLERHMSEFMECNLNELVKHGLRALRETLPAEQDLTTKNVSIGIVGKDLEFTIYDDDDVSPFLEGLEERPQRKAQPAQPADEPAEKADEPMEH
UniProt P28066: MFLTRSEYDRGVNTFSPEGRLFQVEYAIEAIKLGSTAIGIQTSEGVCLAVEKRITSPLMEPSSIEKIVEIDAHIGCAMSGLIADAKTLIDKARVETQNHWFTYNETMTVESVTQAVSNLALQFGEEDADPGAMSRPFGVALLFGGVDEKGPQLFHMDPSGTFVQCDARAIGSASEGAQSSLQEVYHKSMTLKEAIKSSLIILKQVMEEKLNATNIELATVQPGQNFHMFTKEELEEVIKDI

Compound in one assay: CC(C)(C)Cn1c(N)nc2ccc(-c3[nH]c(C(C)(C)C)nc3-c3ccc(F)cc3)nc21 [ralimetinib]
In words: log2 fold change, soluble protein after heating vs DMSO (PISA); higher = thermal stabilisation; K562 cells, 10 uM, 30 min; active = over 0.2 and 3.5 SD of the protein, either way, in both replicates (recomputed). The method, boiled down:
(§1)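 Aliquots of K562 cells (2×10^6 cells/mL) treated with 10 μM compound for 30 min were heated for 3 min over 48°C-58°C. After pooling and extraction in PBS with 0.5% NP-40 at 4°C, soluble protein from a 21,000xg, 90 min spin was quantified by TMTpro 16plex LC-MS/MS with channel sums equalised. Thermal stability is expressed against control samples, from duplicates, as a log2 fold change.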
Turning to PXMP2 (UniProt Q9NR77), the log2 fold change is inactive: -0.101.

Regarding PSPH (UniProt P78330), the log2 fold change is inactive: -0.013.

Turning to QTRT1 (UniProt Q9BXR0), the log2 fold change was inactive: 0.001.

On to PUS7 isoform 2 (UniProt Q96PZ0), for which the log2 fold change is inactive: 0.015.

On to PZP (UniProt P20742), for which the log2 fold change was inactive: 0.006.

On to QPCTL (UniProt Q9NXS2), for which the log2 fold change was inactive: 0.067.

In the case of PTMS (UniProt P20962), the log2 fold change is inactive: 0.002.

Consider PWP2 (UniProt Q15269), for which the log2 fold change is inactive: 0.057.

Take PSMA8 (UniProt Q8TAA3): the log2 fold change was inactive: 0.

On to QDPR (UniProt P09417), for which the log2 fold change was inactive: -0.039.

Take PSME1 (UniProt Q06323): the log2 fold change was inactive: -0.085.

For PSME2 (UniProt Q9UL46), the log2 fold change was inactive: -0.054.

In the case of PRTFDC1 (UniProt Q9NRG1), the log2 fold change is inactive: -0.061.

As to PSMB1 (UniProt P20618), the log2 fold change is inactive: 0.088.

For PTPRA (UniProt P18433), the log2 fold change is inactive: -0.035.

With PSMD4 (UniProt P55036), the log2 fold change was inactive: 0.012.

Take PUS7L (UniProt Q9H0K6): the log2 fold change is inactive: 0.027.

Turning to PSMD14 (UniProt O00487), the log2 fold change was inactive: 0.03.

Consider PUM2 (UniProt Q8TB72), for which the log2 fold change was inactive: -0.007.

Regarding PTPRC (UniProt P08575), the log2 fold change is inactive: -0.025.

For QTRT2 isoform 4 (UniProt Q9H974), the log2 fold change was inactive: -0.007.

Turning to PUS10 (UniProt Q3MIT2), the log2 fold change is inactive: -0.004.

As to PSMG4 isoform 2 (UniProt Q5JS54), the log2 fold change is inactive: -0.123.

On to PYCARD (UniProt Q9ULZ3), for which the log2 fold change is inactive: -0.044.

As for PSMA7 (UniProt O14818), the log2 fold change was inactive: -0.004.

Consider PTDSS2 (UniProt Q9BVG9), for which the log2 fold change was inactive: -0.121.

As for QSOX2 (UniProt Q6ZRP7), the log2 fold change is inactive: 0.

Turning to PTK7 isoform 6 (UniProt Q13308), the log2 fold change was inactive: -0.111.

Regarding PYM1 (UniProt Q9BRP8), the log2 fold change was inactive: 0.015.

PSMA1 isoform 2 (UniProt P25786): the log2 fold change is inactive: 0.007.

Consider PSMA5 (UniProt P28066), for which the log2 fold change is inactive: 0.007.

As to PTCD3 (UniProt Q96EY7), the log2 fold change is inactive: 0.021.

Regarding PXN (UniProt P49023), the log2 fold change is inactive: -0.007.

For the target PSAP isoform 3 (UniProt P07602), the log2 fold change was inactive: -0.038.

Compound in another assay: CC(C)(O)CC(=O)NCCn1ccc2ncnc(Nc3ccc(Oc4cccc(C(F)(F)F)c4)c(Cl)c3)c21
The description is as above. The method, boiled down:
as §1
Turning to PXMP2 (UniProt Q9NR77), the log2 fold change was inactive: 0.037.

As to PSPH (UniProt P78330), the log2 fold change is inactive: 0.015.

As to QTRT1 (UniProt Q9BXR0), the log2 fold change was inactive: -0.039.

As for PUS7 isoform 2 (UniProt Q96PZ0), the log2 fold change was inactive: 0.013.

PZP (UniProt P20742): the log2 fold change was inactive: 0.137.

Consider QPCTL (UniProt Q9NXS2), for which the log2 fold change is inactive: -0.004.

As for PTMS (UniProt P20962), the log2 fold change is inactive: -0.009.

As to PWP2 (UniProt Q15269), the log2 fold change is inactive: 0.039.

As to PSMA8 (UniProt Q8TAA3), the log2 fold change is inactive: 0.04.

Consider QDPR (UniProt P09417), for which the log2 fold change is inactive: 0.036.

On to PSME1 (UniProt Q06323), for which the log2 fold change was inactive: -0.026.

Consider PSME2 (UniProt Q9UL46), for which the log2 fold change is inactive: -0.012.

With PRTFDC1 (UniProt Q9NRG1), the log2 fold change was inactive: 0.021.

As for PSMB1 (UniProt P20618), the log2 fold change was inactive: 0.

For the target PTPRA (UniProt P18433), the log2 fold change is inactive: 0.036.

Regarding PSMD4 (UniProt P55036), the log2 fold change is inactive: 0.053.

Consider PUS7L (UniProt Q9H0K6), for which the log2 fold change is inactive: -0.053.

For the target PSMD14 (UniProt O00487), the log2 fold change is inactive: -0.046.

For the target PUM2 (UniProt Q8TB72), the log2 fold change was inactive: 0.042.

Take PTPRC (UniProt P08575): the log2 fold change was inactive: 0.

As for QTRT2 isoform 4 (UniProt Q9H974), the log2 fold change was inactive: 0.001.

Regarding PUS10 (UniProt Q3MIT2), the log2 fold change was inactive: -0.023.

In the case of PSMG4 isoform 2 (UniProt Q5JS54), the log2 fold change is inactive: -0.069.

Take PYCARD (UniProt Q9ULZ3): the log2 fold change is inactive: -0.144.

On to PSMA7 (UniProt O14818), for which the log2 fold change is inactive: 0.097.

For the target PTDSS2 (UniProt Q9BVG9), the log2 fold change was inactive: -0.03.

Turning to QSOX2 (UniProt Q6ZRP7), the log2 fold change is inactive: -0.019.

For PTK7 isoform 6 (UniProt Q13308), the log2 fold change is inactive: -0.503.

As for PYM1 (UniProt Q9BRP8), the log2 fold change was inactive: 0.099.

On to PSMA1 isoform 2 (UniProt P25786), for which the log2 fold change was inactive: 0.052.

In the case of PSMA5 (UniProt P28066), the log2 fold change is inactive: 0.027.

Take PTCD3 (UniProt Q96EY7): the log2 fold change was inactive: -0.053.

As for PXN (UniProt P49023), the log2 fold change was inactive: -0.047.

On to PSAP isoform 3 (UniProt P07602), for which the log2 fold change is inactive: -0.055.

Compound in another assay: CC(C)C1=C2N=C(C=C(N2N=C1)NCC3=CC=CC=C3)NCCCCCCN
The description is as above. The method, boiled down: as §1
As for PXMP2 (UniProt Q9NR77), the log2 fold change was inactive: -0.06.

On to PSPH (UniProt P78330), for which the log2 fold change is inactive: 0.004.

On to QTRT1 (UniProt Q9BXR0), for which the log2 fold change was inactive: 0.017.

Regarding PUS7 isoform 2 (UniProt Q96PZ0), the log2 fold change was inactive: -0.036.

PZP (UniProt P20742): the log2 fold change was inactive: 0.109.

QPCTL (UniProt Q9NXS2): the log2 fold change was inactive: -0.154.

As for PTMS (UniProt P20962), the log2 fold change was inactive: 0.08.

PWP2 (UniProt Q15269): the log2 fold change is inactive: 0.123.

With PSMA8 (UniProt Q8TAA3), the log2 fold change was inactive: 0.04.

In the case of QDPR (UniProt P09417), the log2 fold change was inactive: 0.067.

Regarding PSME1 (UniProt Q06323), the log2 fold change was inactive: -0.002.

As to PSME2 (UniProt Q9UL46), the log2 fold change was inactive: -0.006.

Consider PRTFDC1 (UniProt Q9NRG1), for which the log2 fold change is inactive: 0.058.

Consider PSMB1 (UniProt P20618), for which the log2 fold change is inactive: 0.164.

For PTPRA (UniProt P18433), the log2 fold change was inactive: 0.129.

In the case of PSMD4 (UniProt P55036), the log2 fold change is inactive: 0.062.

On to PUS7L (UniProt Q9H0K6), for which the log2 fold change was inactive: -0.028.

For the target PSMD14 (UniProt O00487), the log2 fold change was inactive: -0.03.

Regarding PUM2 (UniProt Q8TB72), the log2 fold change was inactive: -0.064.

Take PTPRC (UniProt P08575): the log2 fold change is inactive: 0.133.

Turning to QTRT2 isoform 4 (UniProt Q9H974), the log2 fold change is inactive: 0.004.

PUS10 (UniProt Q3MIT2): the log2 fold change is inactive: -0.087.

For the target PSMG4 isoform 2 (UniProt Q5JS54), the log2 fold change is inactive: 0.057.

On to PYCARD (UniProt Q9ULZ3), for which the log2 fold change is inactive: -0.014.

Regarding PSMA7 (UniProt O14818), the log2 fold change is inactive: 0.078.

On to PTDSS2 (UniProt Q9BVG9), for which the log2 fold change is inactive: -0.189.

As for QSOX2 (UniProt Q6ZRP7), the log2 fold change is inactive: -0.027.

On to PTK7 isoform 6 (UniProt Q13308), for which the log2 fold change was inactive: 0.108.

In the case of PYM1 (UniProt Q9BRP8), the log2 fold change is inactive: 0.069.

As for PSMA1 isoform 2 (UniProt P25786), the log2 fold change was inactive: 0.108.

Take PSMA5 (UniProt P28066): the log2 fold change was inactive: 0.087.

Regarding PTCD3 (UniProt Q96EY7), the log2 fold change is inactive: -0.061.

As to PXN (UniProt P49023), the log2 fold change is inactive: 0.086.

With PSAP isoform 3 (UniProt P07602), the log2 fold change is inactive: 0.067.
